Measurements as given in paper PMC6941229.
No constants are given. Whether binding was seen depends on the method and setting. Binding seen in cells or lysates may run through a third protein. Some results given as binding are weak or reduced against the parent protein; the word gives no strength. For some assays here: Where a sequence is shown, tags or fusion partners need not be part of it.

T1: SBP-Asi2 (S. cerevisiae) (UniProt P53895)
T1 sequence: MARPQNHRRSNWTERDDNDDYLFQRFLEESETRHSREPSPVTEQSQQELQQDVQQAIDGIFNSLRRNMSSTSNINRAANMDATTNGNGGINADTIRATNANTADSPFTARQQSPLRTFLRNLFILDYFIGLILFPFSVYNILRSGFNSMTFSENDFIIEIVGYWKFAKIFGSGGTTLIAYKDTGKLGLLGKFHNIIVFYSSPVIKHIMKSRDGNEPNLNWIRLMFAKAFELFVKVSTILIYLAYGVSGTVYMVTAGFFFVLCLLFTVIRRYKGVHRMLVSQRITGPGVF

T2: FLAG-Asi3 (S. cerevisiae) (UniProt P53983)
T2 sequence: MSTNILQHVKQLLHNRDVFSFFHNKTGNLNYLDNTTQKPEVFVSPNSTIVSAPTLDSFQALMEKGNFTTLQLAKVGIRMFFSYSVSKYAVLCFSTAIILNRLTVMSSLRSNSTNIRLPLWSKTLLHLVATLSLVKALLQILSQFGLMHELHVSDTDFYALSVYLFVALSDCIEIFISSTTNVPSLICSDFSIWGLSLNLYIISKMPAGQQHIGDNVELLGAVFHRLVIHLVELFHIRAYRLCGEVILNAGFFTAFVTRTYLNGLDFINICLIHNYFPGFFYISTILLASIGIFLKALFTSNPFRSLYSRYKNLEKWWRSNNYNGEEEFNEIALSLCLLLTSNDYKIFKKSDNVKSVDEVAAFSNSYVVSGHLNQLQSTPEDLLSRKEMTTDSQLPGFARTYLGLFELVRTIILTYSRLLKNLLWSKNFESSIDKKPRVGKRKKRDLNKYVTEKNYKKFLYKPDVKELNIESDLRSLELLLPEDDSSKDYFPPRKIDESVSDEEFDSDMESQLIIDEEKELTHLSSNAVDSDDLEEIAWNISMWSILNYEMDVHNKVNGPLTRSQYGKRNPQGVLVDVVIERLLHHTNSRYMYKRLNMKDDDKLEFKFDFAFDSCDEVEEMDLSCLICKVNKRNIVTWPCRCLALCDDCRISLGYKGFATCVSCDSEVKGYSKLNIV

T3: the Asi complex (Asi1 and Asi3, the partners of Asi2) (S. cerevisiae (endogenous in yeast cells)) (UniProt P54074+P53983)
T3 sequence 1: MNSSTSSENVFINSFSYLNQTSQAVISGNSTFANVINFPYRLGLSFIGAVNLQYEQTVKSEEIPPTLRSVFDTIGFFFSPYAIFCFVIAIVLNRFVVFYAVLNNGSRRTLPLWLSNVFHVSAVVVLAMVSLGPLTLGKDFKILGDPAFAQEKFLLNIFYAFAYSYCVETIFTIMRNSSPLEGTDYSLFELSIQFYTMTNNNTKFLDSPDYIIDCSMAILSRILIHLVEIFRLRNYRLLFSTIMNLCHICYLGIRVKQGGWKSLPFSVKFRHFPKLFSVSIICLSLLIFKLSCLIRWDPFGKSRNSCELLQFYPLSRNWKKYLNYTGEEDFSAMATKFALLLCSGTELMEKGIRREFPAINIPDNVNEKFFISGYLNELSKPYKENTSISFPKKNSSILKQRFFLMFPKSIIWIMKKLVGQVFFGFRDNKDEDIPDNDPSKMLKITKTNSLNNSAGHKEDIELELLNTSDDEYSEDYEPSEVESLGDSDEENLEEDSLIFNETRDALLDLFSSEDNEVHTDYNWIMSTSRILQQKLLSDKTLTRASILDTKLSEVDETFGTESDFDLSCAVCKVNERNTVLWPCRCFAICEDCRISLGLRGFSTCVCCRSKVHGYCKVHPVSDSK
T3 sequence 2: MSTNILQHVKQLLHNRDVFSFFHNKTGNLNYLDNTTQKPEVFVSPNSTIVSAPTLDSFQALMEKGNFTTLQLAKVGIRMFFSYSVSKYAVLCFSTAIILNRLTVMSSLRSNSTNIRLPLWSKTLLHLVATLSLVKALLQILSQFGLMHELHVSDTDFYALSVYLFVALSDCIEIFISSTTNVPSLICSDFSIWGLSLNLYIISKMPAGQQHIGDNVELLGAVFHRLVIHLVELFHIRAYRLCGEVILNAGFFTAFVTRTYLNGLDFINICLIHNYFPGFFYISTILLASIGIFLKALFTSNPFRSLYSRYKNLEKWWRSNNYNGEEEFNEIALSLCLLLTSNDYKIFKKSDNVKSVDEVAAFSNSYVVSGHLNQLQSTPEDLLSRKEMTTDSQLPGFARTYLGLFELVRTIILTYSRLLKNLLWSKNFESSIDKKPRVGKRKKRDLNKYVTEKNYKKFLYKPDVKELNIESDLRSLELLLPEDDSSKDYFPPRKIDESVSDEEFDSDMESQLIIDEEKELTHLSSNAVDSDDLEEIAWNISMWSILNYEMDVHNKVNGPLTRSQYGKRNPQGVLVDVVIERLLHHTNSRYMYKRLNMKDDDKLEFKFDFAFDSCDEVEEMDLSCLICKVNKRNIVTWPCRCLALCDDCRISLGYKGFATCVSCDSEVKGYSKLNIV


Key:
[1] = biological target: T1, SBP-Asi2 (S. cerevisiae); assay: pull-down; co-expressed Asi1, SBP-Asi2 and Asi3; membranes solubilized in 1% DMNG, High Capacity Streptavidin Agarose overnight, washed in 300mM sodium chloride, 0.3mM DMNG, eluted with 2mM Biotin
[2] = biological target: T2, FLAG-Asi3 (S. cerevisiae); assay: co-IP; co-expressed Asi1, SBP-Asi2 and FLAG-Asi3; membranes solubilized in 1% DMNG, FLAG M2 agarose beads overnight, washed in 300mM sodium chloride, 0.3mM DMNG, eluted with 3xFlag-peptide
[3] = biological target: T3, the Asi complex (Asi1 and Asi3, the partners of Asi2) (S. cerevisiae (endogenous in yeast cells)); assay: co-IP; native immunoprecipitation from membranes solubilized in 1% GDN or 1% DMNG, FLAG M2 magnetic beads or Protein A beads coupled to anti-Asi1 and anti-Asi2 antibodies, overnight at 4°C

Row | Binder | binding [1] | binding [2] | binding [3]
1 | Asi3 (untagged, overexpressed) (protein, UniProt P53983 1-676) MSTNILQHVKQLLHNRDVFSFFHNKTGNLNYLDNTTQKPEVFVSPNSTIVSAPTLDSFQALMEKGNFTTLQLAKVGIRMFFSYSVSKYAVLCFSTAIILNRLTVMSSLRSNSTNIRLPLWSKTLLHLVATLSLVKALLQILSQFGLMHELHVSDTDFYALSVYLFVALSDCIEIFISSTTNVPSLICSDFSIWGLSLNLYIISKMPAGQQHIGDNVELLGAVFHRLVIHLVELFHIRAYRLCGEVILNAGFFTAFVTRTYLNGLDFINICLIHNYFPGFFYISTILLASIGIFLKALFTSNPFRSLYSRYKNLEKWWRSNNYNGEEEFNEIALSLCLLLTSNDYKIFKKSDNVKSVDEVAAFSNSYVVSGHLNQLQSTPEDLLSRKEMTTDSQLPGFARTYLGLFELVRTIILTYSRLLKNLLWSKNFESSIDKKPRVGKRKKRDLNKYVTEKNYKKFLYKPDVKELNIESDLRSLELLLPEDDSSKDYFPPRKIDESVSDEEFDSDMESQLIIDEEKELTHLSSNAVDSDDLEEIAWNISMWSILNYEMDVHNKVNGPLTRSQYGKRNPQGVLVDVVIERLLHHTNSRYMYKRLNMKDDDKLEFKFDFAFDSCDEVEEMDLSCLICKVNKRNIVTWPCRCLALCDDCRISLGYKGFATCVSCDSEVKGYSKLNIV | binds |  | 
2 | Asi2Δ4 (protein, UniProt P53895) MARPQNHRRSNWTERDDNDDYLFQRFLEESETRHSREPSPVTEQSQQELQQDVQQAIDGIFNSLRRNMSSTSNINRAANMDATTNGNGGINADTIRATNANTADSPFTARQQSPLRTFLRNLFILDYFIGLILFPFSVYNILRSGFNSMTFSENDFIIEIVGYWKFAKIFGSGGTTLIAYKDTGKLGLLGKFHNIIVFYSSPVIKHIMKSRDGNEPNLNWIRLMFAKAFELFVKVSTILIYLAYGVSGTVYMVTAGFFFVFTVIRRYKGVHRMLVSQRITGPGVF |  |  | binds

Other lines, results leading:

Row | binding [1] | binding [2] | binding [3] | Binder
3 | binds | binds |  | Asi1 (untagged, overexpressed) (protein, UniProt P54074 1-624) MNSSTSSENVFINSFSYLNQTSQAVISGNSTFANVINFPYRLGLSFIGAVNLQYEQTVKSEEIPPTLRSVFDTIGFFFSPYAIFCFVIAIVLNRFVVFYAVLNNGSRRTLPLWLSNVFHVSAVVVLAMVSLGPLTLGKDFKILGDPAFAQEKFLLNIFYAFAYSYCVETIFTIMRNSSPLEGTDYSLFELSIQFYTMTNNNTKFLDSPDYIIDCSMAILSRILIHLVEIFRLRNYRLLFSTIMNLCHICYLGIRVKQGGWKSLPFSVKFRHFPKLFSVSIICLSLLIFKLSCLIRWDPFGKSRNSCELLQFYPLSRNWKKYLNYTGEEDFSAMATKFALLLCSGTELMEKGIRREFPAINIPDNVNEKFFISGYLNELSKPYKENTSISFPKKNSSILKQRFFLMFPKSIIWIMKKLVGQVFFGFRDNKDEDIPDNDPSKMLKITKTNSLNNSAGHKEDIELELLNTSDDEYSEDYEPSEVESLGDSDEENLEEDSLIFNETRDALLDLFSSEDNEVHTDYNWIMSTSRILQQKLLSDKTLTRASILDTKLSEVDETFGTESDFDLSCAVCKVNERNTVLWPCRCFAICEDCRISLGLRGFSTCVCCRSKVHGYCKVHPVSDSK
4 |  | binds |  | SBP-Asi2 (protein, UniProt P53895 1-289) MARPQNHRRSNWTERDDNDDYLFQRFLEESETRHSREPSPVTEQSQQELQQDVQQAIDGIFNSLRRNMSSTSNINRAANMDATTNGNGGINADTIRATNANTADSPFTARQQSPLRTFLRNLFILDYFIGLILFPFSVYNILRSGFNSMTFSENDFIIEIVGYWKFAKIFGSGGTTLIAYKDTGKLGLLGKFHNIIVFYSSPVIKHIMKSRDGNEPNLNWIRLMFAKAFELFVKVSTILIYLAYGVSGTVYMVTAGFFFVLCLLFTVIRRYKGVHRMLVSQRITGPGVF
